Measurements reported in PubChem BioAssay AID493246 (Drosophila RNAi Screening Center, 2011).

- Assay: 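Genes fly cells need to grow and stay alive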 (primary screen)
- Cell system: Drosophila Kc and S2R+ cells
- Reagents: long dsRNA against Drosophila genes
- Measurement: 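Cell number per well after knock-down, printed as raw plate values; calls were based on per-plate z-scores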
- Scale: Kc cell number and S2R+ cell number: higher = more cells remaining
- Active means: 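Active when the per-plate z-score of cell number is 3 or more in the direction of fewer cells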
The screen tested about 21,000 reagents; this is a random part of those with a known target gene and a result. Over the whole deposit, 429 (2%) were called active. 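Values are raw and not normalised between plates; calls rest on per-plate z-scores that were not deposited.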 Not stated in the record: the amount of reagent, the time to read-out.

gene,amplicon,"Kc cell number, rep 1","Kc cell number, rep 2","S2R+ cell number, rep 1","S2R+ cell number, rep 2",activity call
Ir62a,DRSC08250,1.44e6,1.26e6,9.60e5,1.24e6,inactive
Mlc-c,DRSC18683,5.52e5,,8.34e5,,inactive
Usp12-46,DRSC16175,1.46e6,1.54e6,1.01e6,1.15e6,inactive
Tret1-1,DRSC07046,1.51e6,1.51e6,1.19e6,1.33e6,inactive
Tret1-1,DRSC07048,1.40e6,1.51e6,1.17e6,1.31e6,inactive
CG10365,DRSC14234,1.57e6,1.56e6,9.72e5,1.08e6,inactive
CG32829,DRSC00961,1.60e6,1.68e6,1.09e6,1.24e6,inactive
CG4238,DRSC00090,1.55e6,1.57e6,1.11e6,1.30e6,inactive
CG4238,DRSC00644,1.67e6,1.75e6,1.03e6,1.21e6,inactive
mute,DRSC06562,1.50e6,1.57e6,7.64e5,8.68e5,inactive
didum,DRSC07603,1.64e6,1.63e6,1.35e6,1.44e6,inactive
Charon,DRSC00679,1.31e6,1.28e6,8.12e5,8.66e5,inactive
CG8306,DRSC07141,1.36e6,1.41e6,1.25e6,1.27e6,inactive
SCAR,DRSC03426,1.41e6,1.50e6,1.12e6,1.25e6,inactive
lncRNA:CR42862,DRSC08348,1.61e6,1.61e6,1.23e6,1.33e6,inactive
MED26,DRSC17126,1.39e6,1.62e6,1.04e6,1.03e6,inactive
MED26,DRSC17147,1.59e6,1.64e6,9.40e5,1.01e6,inactive
MED26,DRSC17148,5.20e5,,8.18e5,,inactive
alphaTry,DRSC07577,1.58e6,1.64e6,1.38e6,1.43e6,inactive
CG10339,DRSC04065,1.51e6,1.55e6,1.21e6,1.30e6,inactive
CG31528,DRSC12003,1.30e6,1.42e6,1.09e6,1.28e6,inactive
CG4278,DRSC02741,1.37e6,1.41e6,1.38e6,1.40e6,inactive
CG11997,DRSC14464,1.72e6,1.97e6,1.28e6,1.32e6,inactive
CG8191,DRSC20091,1.56e6,1.59e6,1.14e6,1.18e6,inactive
L,DRSC06666,1.62e6,1.56e6,1.09e6,1.08e6,inactive
L,DRSC06668,1.56e6,1.50e6,1.21e6,1.24e6,inactive
GlcT,DRSC04525,1.14e6,1.24e6,1.09e6,1.06e6,inactive
CHKov2,DRSC14262,7.36e5,,8.75e5,,inactive
Duba,DRSC10582,1.31e6,1.34e6,1.23e6,1.15e6,inactive
CG4641 (retired record),DRSC10439,1.58e6,1.72e6,1.27e6,1.19e6,inactive
Got2,DRSC00643,1.28e6,1.34e6,9.13e5,9.66e5,inactive
Cyp312a1,DRSC11128,1.31e6,1.34e6,1.27e6,1.35e6,inactive
NPF,DRSC17019,1.57e6,1.56e6,1.12e6,1.28e6,inactive
CG16727,DRSC15139,1.26e6,1.23e6,1.06e6,1.16e6,inactive
CG4080,DRSC10398,1.35e6,1.39e6,1.35e6,1.27e6,inactive
CG14043,DRSC02368,1.44e6,1.39e6,1.09e6,1.23e6,inactive
O-fut1,DRSC06138,1.40e6,1.45e6,1.16e6,1.21e6,inactive
CG34320 (retired record),DRSC17682,1.11e6,1.39e6,1.05e6,1.11e6,inactive
CG7203,DRSC03026,1.60e6,1.61e6,1.12e6,1.21e6,inactive
rumi,DRSC15177,1.57e6,1.57e6,1.21e6,1.25e6,inactive
Cpr47Ec,DRSC07332,1.50e6,1.61e6,1.31e6,1.47e6,inactive
Cpr67B,DRSC10373,1.43e6,1.51e6,1.28e6,1.19e6,inactive
Ppi1,DRSC15421,4.33e5,,6.63e5,,inactive
Ufd4,DRSC02871,1.48e6,1.55e6,1.17e6,1.30e6,inactive
CG32050 (retired record),DRSC10173,1.43e6,1.44e6,1.15e6,1.18e6,inactive
PCB,DRSC05939,1.24e6,1.32e6,1.07e6,1.16e6,inactive
CG7724,DRSC10905,1.83e6,1.86e6,1.46e6,1.42e6,inactive
Pur-alpha,DRSC17166,5.65e5,,8.14e5,,inactive
Cpr92F,DRSC15819,1.35e6,1.38e6,1.22e6,1.34e6,inactive
CG10298,DRSC12522,1.55e6,1.69e6,1.27e6,1.33e6,inactive
ATPsynE,DRSC15476,1.43e6,1.51e6,1.05e6,1.08e6,inactive
Jon99Fii,DRSC15430,1.46e6,1.48e6,9.38e5,1.04e6,inactive
Map205,DRSC16732,4.03e5,,6.05e5,,inactive
betaCOP,DRSC20312,1.73e6,1.78e6,7.86e5,9.20e5,inactive
CrebB,DRSC20232,1.55e6,1.56e6,1.07e6,1.14e6,inactive
Syt4,DRSC12606,1.56e6,1.69e6,1.31e6,1.37e6,inactive
a,DRSC04667,1.23e6,1.33e6,8.46e5,3.40e5,inactive
a,DRSC04668,1.55e6,1.72e6,1.32e6,3.51e5,inactive
mthl10,DRSC08504,1.42e6,1.35e6,1.13e6,1.33e6,inactive
mthl10,DRSC08505,1.66e6,1.48e6,1.04e6,1.39e6,inactive

Quoted from the listing (5 entries):
gene,amplicon,"Kc cell number, rep 1","Kc cell number, rep 2","S2R+ cell number, rep 1","S2R+ cell number, rep 2",activity call
Ppi1,DRSC15421,4.33e5,,6.63e5,,inactive
Ufd4,DRSC02871,1.48e6,1.55e6,1.17e6,1.30e6,inactive
CG32050 (retired record),DRSC10173,1.43e6,1.44e6,1.15e6,1.18e6,inactive
PCB,DRSC05939,1.24e6,1.32e6,1.07e6,1.16e6,inactive
CG7724,DRSC10905,1.83e6,1.86e6,1.46e6,1.42e6,inactive
